Test results published in the supplement of paper PMC11732987, “Enantioselective OTUD7B fragment discovery through chemoproteomics screening and high-throughput optimisation” (Communications Chemistry, 2025).
Some of the results follow. The data scatter; read single values as rough.

Protein sequences, listed by entry. Tags and fused reporters are not part of them. Lines headed by an entry give the natural chain unless they say otherwise; changes in a name come on top. Residues count along the entry.
UniProt O75582, whole entry, looked up: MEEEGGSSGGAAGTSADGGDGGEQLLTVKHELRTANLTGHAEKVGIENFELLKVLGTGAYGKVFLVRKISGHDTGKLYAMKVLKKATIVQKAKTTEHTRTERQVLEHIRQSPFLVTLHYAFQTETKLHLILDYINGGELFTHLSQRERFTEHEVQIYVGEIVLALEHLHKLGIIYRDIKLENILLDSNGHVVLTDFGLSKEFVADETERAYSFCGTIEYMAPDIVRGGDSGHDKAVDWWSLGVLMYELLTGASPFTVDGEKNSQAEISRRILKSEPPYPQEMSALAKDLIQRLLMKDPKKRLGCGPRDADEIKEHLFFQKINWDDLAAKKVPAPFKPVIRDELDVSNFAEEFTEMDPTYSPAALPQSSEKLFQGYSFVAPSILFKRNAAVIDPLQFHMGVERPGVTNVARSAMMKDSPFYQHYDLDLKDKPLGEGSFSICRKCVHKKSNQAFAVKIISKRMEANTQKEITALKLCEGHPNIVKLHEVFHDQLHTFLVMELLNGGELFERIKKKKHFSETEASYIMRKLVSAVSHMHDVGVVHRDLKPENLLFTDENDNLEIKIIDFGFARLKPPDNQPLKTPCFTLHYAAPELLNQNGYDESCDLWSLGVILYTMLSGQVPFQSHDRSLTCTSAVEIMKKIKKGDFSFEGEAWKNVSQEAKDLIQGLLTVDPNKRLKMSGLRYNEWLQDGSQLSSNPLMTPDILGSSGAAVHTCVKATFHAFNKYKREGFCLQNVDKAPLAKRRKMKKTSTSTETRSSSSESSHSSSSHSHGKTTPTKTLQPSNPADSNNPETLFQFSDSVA
UniProt O75818: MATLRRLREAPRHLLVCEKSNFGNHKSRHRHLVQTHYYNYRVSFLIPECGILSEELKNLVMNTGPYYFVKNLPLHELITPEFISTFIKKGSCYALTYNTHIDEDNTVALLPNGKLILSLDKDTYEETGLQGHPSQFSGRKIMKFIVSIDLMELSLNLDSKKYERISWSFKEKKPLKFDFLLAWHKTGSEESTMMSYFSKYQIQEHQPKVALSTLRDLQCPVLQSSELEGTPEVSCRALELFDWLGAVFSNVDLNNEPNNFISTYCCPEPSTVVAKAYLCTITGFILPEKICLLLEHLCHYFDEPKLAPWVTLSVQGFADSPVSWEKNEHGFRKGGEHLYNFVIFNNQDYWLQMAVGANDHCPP
UniProt Q9H6T3, whole entry, looked up: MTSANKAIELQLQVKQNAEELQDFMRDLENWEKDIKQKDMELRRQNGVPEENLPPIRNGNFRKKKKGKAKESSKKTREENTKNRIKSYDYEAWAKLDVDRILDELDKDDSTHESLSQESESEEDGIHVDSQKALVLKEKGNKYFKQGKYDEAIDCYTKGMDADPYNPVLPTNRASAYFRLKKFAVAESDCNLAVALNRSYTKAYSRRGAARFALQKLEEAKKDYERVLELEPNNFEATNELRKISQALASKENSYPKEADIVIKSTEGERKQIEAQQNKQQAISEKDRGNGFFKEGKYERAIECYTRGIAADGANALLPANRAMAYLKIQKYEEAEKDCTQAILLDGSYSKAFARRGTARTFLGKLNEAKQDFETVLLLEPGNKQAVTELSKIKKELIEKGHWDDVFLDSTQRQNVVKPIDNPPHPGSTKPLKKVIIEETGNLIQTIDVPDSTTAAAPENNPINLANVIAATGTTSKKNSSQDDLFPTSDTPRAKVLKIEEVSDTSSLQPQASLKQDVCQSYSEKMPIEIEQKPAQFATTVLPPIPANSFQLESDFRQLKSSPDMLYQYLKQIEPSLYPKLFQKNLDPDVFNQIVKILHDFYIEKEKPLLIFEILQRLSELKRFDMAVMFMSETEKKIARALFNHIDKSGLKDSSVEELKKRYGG
UniProt Q9Y3A4, 78-101: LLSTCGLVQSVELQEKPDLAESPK
UniProt Q8NCN4: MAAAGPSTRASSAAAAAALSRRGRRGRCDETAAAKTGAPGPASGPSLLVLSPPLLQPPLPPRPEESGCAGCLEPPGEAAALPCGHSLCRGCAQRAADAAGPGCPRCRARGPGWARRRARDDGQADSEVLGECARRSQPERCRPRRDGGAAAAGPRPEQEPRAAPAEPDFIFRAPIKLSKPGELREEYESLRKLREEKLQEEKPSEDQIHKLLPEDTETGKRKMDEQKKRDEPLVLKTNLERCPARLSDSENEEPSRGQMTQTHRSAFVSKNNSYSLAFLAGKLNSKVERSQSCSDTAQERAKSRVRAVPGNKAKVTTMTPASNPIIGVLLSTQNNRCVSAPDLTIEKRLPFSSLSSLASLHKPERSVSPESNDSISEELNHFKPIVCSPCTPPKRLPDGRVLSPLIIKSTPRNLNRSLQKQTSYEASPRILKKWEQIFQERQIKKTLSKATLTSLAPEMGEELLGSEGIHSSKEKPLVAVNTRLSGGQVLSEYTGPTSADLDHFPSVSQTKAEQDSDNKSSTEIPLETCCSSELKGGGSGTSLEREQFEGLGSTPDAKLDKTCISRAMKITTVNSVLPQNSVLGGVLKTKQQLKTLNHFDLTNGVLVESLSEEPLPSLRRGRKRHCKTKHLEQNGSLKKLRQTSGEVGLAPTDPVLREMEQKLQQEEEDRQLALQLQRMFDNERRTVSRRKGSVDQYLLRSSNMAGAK
UniProt Q5M7Z0: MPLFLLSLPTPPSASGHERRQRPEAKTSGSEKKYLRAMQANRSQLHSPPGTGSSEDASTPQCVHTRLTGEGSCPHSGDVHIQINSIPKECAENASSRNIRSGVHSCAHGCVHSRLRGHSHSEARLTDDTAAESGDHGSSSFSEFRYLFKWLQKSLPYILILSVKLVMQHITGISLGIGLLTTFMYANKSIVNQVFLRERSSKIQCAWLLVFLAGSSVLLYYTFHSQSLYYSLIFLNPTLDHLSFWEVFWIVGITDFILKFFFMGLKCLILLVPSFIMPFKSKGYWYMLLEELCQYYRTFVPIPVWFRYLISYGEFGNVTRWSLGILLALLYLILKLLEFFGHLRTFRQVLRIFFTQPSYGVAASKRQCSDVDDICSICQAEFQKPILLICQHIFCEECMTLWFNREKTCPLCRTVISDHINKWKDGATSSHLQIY
UniProt Q6PCB5: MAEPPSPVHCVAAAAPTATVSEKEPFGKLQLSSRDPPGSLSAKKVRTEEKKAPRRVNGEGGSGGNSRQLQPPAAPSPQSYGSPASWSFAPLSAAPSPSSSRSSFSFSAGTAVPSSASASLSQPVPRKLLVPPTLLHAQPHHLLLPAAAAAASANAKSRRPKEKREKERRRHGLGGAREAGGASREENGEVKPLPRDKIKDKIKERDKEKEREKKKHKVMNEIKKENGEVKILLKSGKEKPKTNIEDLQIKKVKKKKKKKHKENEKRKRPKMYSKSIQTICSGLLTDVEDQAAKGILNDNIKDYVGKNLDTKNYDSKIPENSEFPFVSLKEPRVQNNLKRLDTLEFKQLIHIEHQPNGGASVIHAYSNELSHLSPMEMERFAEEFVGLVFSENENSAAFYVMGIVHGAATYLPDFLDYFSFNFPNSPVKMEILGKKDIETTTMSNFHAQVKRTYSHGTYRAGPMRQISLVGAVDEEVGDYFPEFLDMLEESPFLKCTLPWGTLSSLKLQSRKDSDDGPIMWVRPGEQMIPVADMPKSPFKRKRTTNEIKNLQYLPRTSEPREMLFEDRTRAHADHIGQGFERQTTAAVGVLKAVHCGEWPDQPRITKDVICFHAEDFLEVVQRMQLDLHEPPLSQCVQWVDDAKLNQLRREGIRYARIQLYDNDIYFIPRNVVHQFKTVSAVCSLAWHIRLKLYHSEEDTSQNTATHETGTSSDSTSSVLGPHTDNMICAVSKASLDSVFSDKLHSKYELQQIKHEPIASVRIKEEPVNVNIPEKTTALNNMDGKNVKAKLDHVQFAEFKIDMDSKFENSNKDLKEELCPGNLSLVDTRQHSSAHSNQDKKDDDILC
UniProt Q15050: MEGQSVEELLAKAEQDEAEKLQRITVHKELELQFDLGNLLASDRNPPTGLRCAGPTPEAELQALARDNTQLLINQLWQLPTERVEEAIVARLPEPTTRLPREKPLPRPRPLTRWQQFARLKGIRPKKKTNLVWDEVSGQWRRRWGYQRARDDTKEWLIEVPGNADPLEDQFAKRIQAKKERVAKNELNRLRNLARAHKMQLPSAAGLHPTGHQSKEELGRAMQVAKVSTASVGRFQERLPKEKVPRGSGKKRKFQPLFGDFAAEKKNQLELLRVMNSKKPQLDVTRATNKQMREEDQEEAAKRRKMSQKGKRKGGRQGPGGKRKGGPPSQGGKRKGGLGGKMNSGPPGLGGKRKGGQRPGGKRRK
UniProt P13489, 65-86: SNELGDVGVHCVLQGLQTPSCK
UniProt P56182: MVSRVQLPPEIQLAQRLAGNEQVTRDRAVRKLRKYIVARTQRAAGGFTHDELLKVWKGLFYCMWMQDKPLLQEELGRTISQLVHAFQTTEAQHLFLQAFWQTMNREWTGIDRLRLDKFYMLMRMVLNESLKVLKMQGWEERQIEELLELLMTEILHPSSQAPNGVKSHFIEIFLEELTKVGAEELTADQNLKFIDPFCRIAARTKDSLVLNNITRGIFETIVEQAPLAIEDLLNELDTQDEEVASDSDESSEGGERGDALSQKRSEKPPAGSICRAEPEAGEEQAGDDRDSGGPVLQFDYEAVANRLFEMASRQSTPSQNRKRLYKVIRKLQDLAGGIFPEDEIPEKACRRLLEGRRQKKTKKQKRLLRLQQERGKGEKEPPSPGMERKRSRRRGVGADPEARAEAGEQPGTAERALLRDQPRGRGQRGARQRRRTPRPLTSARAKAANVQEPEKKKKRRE
UniProt P27694: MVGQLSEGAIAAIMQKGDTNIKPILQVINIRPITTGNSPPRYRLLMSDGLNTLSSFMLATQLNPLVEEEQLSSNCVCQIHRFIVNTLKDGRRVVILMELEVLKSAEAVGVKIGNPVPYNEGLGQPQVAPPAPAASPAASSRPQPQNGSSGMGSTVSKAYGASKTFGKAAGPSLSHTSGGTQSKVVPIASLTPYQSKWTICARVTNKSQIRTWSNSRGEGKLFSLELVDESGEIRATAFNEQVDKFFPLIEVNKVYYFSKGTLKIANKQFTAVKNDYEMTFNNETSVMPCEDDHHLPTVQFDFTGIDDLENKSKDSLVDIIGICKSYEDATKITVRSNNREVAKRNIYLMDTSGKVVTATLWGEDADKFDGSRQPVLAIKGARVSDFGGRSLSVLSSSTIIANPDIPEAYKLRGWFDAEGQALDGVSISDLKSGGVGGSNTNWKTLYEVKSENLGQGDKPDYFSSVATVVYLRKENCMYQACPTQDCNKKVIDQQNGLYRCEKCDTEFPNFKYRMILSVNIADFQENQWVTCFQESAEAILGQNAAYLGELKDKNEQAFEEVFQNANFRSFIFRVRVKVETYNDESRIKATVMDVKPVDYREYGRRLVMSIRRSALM
UniProt Q9BZR6: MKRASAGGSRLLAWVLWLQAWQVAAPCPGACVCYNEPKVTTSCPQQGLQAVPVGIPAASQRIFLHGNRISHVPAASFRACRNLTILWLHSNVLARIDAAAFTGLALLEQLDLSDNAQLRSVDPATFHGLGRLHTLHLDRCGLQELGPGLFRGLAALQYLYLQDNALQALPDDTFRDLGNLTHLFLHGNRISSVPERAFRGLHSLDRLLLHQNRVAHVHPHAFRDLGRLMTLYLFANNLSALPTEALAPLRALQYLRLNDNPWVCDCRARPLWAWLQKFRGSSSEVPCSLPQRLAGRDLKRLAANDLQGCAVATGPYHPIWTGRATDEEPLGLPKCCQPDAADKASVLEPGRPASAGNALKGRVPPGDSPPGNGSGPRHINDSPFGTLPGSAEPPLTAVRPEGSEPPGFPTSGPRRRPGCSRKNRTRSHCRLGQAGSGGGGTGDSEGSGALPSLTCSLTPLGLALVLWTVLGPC
UniProt A6NKF1: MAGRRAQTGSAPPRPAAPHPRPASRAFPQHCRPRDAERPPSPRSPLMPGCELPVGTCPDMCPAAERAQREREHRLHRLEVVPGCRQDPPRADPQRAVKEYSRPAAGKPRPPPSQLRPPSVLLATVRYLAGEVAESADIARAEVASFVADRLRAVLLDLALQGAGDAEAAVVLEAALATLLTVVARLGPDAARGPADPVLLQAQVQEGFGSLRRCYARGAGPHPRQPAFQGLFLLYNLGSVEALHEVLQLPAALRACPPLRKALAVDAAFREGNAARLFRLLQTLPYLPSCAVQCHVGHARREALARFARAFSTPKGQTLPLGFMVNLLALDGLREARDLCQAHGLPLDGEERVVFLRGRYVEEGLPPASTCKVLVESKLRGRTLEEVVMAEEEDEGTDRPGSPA

Compound: ClCC(=O)N[C@H]1CCCc2ccccc12
Assay: log2 mean competition ratio of IA-DTB cysteine labelling (DMSO/compound) (log2 ratio); higher = stronger cysteine engagement by compound
Settings: 50 µM; treatment time: 4 h; cell line lysate: HEK293T
Method: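 IA-DTB competitive cysteine chemoproteomics in HEK293T RIPA lysate. Lysates were treated with compound 29 or 30 at 50 or 200 µM for 4 h, then IA-DTB (500 µM, 1 h), trypsin-digested, NeutrAvidin-enriched and analysed by diaPASEF. Competition ratio = intensity DMSO / intensity compound (n=4 treated, n=64 DMSO); binding: mean log2 CR ≥ 1 and p ≤ 0.05 plus QC filters. Target is the cysteine site.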

Row | Target | log2 mean competition ratio
1 | RPS6KA5 C475 (UniProt O75582) | -0.0896
2 | RPP40 C17 (UniProt O75818) | -0.112
3 | RPAP3 C519 (UniProt Q9H6T3) | -0.212
4 | RPAP3 C304 (UniProt Q9H6T3) | 0.174
5 | RPL18A C109 (UniProt Q02543) | -0.212
6 | RRP7A C82 (UniProt Q9Y3A4) | 0.415
7 | RNF169 C28 (UniProt Q8NCN4) | -0.0692
8 | RNFT1 C90 (UniProt Q5M7Z0) | -0.192
9 | RNF213 C4397 | -0.108
10 | ROR1 C575 | -0.33
11 | RSBN1L C595 (UniProt Q6PCB5) | 0.0335
12 | RRS1 C52 (UniProt Q15050) | -0.0463
13 | RNF213 C1748 | 0.0237
14 | RNH1_(C75,C75,C85,C85) (UniProt P13489) | 0.279
15 | RRP1 C274 (UniProt P56182) | -0.0925
16 | RNF8 C181 (UniProt O76064) | -0.14
17 | RPA1 C323 (UniProt P27694) | -0.553
18 | RNF213 C4570 | 0.177
19 | RTN4R C287 (UniProt Q9BZR6) | 0.408
20 | SAC3D1 C84 (UniProt A6NKF1) | 0.0799

Same assay, conditions: 200 µM; treatment time: 4 h; cell line lysate: HEK293T

Row | Target | log2 mean competition ratio
21 | RPS6KA5 C475 (UniProt O75582) | -0.444
22 | RPP40 C17 (UniProt O75818) | -0.224
23 | RPAP3 C519 (UniProt Q9H6T3) | 0.087
24 | RPAP3 C304 (UniProt Q9H6T3) | 0.206
25 | RPL18A C109 (UniProt Q02543) | -0.163
26 | RRP7A C82 (UniProt Q9Y3A4) | 0.186
27 | RNF169 C28 (UniProt Q8NCN4) | 0.151
28 | RNFT1 C90 (UniProt Q5M7Z0) | -0.0135
29 | RNF213 C4397 | -0.102
30 | ROR1 C575 | -0.489
31 | RSBN1L C595 (UniProt Q6PCB5) | -0.0596
32 | RRS1 C52 (UniProt Q15050) | 0.131
33 | RNF213 C1748 | 0.187
34 | RNH1_(C75,C75,C85,C85) (UniProt P13489) | -0.392
35 | RRP1 C274 (UniProt P56182) | 0.0566
36 | RNF8 C181 (UniProt O76064) | -0.0953
37 | RPA1 C323 (UniProt P27694) | 0.0886
38 | RNF213 C4570 | 0.354
39 | RTN4R C287 (UniProt Q9BZR6) | -0.067
40 | SAC3D1 C84 (UniProt A6NKF1) | -0.0855
